Laboratory results: paper PMC11873932
No constants are given. Whether binding was seen depends on the method and setting. Some entries that bind do so weakly or less than the wild type. Where a sequence is shown, tags or fusion partners need not be part of it.

Sequences of proteins named here, by UniProt entry; tags and fusion partners are left off.
UniProt P11801: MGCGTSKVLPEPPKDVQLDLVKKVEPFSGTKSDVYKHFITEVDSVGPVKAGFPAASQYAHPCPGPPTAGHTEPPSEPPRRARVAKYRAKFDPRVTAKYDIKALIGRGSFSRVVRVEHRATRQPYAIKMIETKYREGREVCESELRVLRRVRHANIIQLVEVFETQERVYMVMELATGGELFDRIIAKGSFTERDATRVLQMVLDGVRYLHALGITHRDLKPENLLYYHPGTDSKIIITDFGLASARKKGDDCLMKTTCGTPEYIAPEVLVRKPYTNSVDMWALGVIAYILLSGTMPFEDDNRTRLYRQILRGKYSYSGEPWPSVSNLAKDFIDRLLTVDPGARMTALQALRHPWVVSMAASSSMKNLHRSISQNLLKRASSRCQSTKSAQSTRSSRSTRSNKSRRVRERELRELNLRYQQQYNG

Key:
[1] = target: Protein Serine Kinase H1 (PSKH1), recombinant full-length, wild type (human) (UniProt P11801); experiment: far-Western, overlay or dot blot; Far-Western with recombinant PSKH1 and His6-CaM or His6-RCN3 in the presence of EGTA (10 mM), probed with anti-His6 horseradish peroxidase antibody; both purified
[2] = target: Protein Serine Kinase H1 (PSKH1), recombinant full-length, wild type (human) (UniProt P11801); experiment: cross-linking; SDA (NHS-Diazirine, 1 mg/mL) cross-linking mass spectrometry; recombinant full-length PSKH1 with Calmodulin, RCN3 or UNC119B at 1:2 molar ratio; 30 min in the dark at room temperature, UV 365 nm; bands cut from reducing SDS-PAGE, trypsin; both purified
[3] = target: Protein Serine Kinase H1 (PSKH1), recombinant full-length, wild type (human) (UniProt P11801); experiment: far-Western, overlay or dot blot; Far-Western with recombinant PSKH1 and His6-CaM or His6-RCN3, Ca2+ 500 uM, probed with anti-His6 horseradish peroxidase antibody; both purified

B1: Reticulocalbin-3 (RCN3), recombinant (His6-RCN3) (protein, UniProt Q96D15 21-328)
chain: KPSPDAGPHGQGRVHQAAPLSDAPHDDAHGNFQYDHEAFLGREVAKEFDQLTPEESQARLGRIVDRMDRAGDGDGWVSLAELRAWIAHTQQRHIRDSVSAAWDTYDTDRDGRVGWEELRNATYGHYAPGEEFHDVEDAETYKKMLARDERRFRVADQDGDSMATREELTAFLHPEEFPHMRDIVIAETLEDLDRNKDGYVQVEEYIADLYSAEPGEEEPAWVQTERQQFRDFRDLNKDGHLDGSEVGHWVLPPAQDQPLVEANHLLHESDTDKDGRLSKAEILGNWNMFVGSQATNYGEDLTRHHDEL
binding [1]: no binding (condition: with 10 mM EGTA)
binding [2]: binds
binding [3]: binds
